Patent US20020152485A1
No constants are given. Whether binding was seen depends on the method and setting. Some results given as binding are weak or reduced against the parent protein; the word gives no strength.

Protein sequences, listed by entry. Tags and fused reporters are not part of them. Lines headed by an entry give the natural chain unless they say otherwise; changes in a name come on top. Residues count along the entry.
UniProt P04114, residues 28-4563: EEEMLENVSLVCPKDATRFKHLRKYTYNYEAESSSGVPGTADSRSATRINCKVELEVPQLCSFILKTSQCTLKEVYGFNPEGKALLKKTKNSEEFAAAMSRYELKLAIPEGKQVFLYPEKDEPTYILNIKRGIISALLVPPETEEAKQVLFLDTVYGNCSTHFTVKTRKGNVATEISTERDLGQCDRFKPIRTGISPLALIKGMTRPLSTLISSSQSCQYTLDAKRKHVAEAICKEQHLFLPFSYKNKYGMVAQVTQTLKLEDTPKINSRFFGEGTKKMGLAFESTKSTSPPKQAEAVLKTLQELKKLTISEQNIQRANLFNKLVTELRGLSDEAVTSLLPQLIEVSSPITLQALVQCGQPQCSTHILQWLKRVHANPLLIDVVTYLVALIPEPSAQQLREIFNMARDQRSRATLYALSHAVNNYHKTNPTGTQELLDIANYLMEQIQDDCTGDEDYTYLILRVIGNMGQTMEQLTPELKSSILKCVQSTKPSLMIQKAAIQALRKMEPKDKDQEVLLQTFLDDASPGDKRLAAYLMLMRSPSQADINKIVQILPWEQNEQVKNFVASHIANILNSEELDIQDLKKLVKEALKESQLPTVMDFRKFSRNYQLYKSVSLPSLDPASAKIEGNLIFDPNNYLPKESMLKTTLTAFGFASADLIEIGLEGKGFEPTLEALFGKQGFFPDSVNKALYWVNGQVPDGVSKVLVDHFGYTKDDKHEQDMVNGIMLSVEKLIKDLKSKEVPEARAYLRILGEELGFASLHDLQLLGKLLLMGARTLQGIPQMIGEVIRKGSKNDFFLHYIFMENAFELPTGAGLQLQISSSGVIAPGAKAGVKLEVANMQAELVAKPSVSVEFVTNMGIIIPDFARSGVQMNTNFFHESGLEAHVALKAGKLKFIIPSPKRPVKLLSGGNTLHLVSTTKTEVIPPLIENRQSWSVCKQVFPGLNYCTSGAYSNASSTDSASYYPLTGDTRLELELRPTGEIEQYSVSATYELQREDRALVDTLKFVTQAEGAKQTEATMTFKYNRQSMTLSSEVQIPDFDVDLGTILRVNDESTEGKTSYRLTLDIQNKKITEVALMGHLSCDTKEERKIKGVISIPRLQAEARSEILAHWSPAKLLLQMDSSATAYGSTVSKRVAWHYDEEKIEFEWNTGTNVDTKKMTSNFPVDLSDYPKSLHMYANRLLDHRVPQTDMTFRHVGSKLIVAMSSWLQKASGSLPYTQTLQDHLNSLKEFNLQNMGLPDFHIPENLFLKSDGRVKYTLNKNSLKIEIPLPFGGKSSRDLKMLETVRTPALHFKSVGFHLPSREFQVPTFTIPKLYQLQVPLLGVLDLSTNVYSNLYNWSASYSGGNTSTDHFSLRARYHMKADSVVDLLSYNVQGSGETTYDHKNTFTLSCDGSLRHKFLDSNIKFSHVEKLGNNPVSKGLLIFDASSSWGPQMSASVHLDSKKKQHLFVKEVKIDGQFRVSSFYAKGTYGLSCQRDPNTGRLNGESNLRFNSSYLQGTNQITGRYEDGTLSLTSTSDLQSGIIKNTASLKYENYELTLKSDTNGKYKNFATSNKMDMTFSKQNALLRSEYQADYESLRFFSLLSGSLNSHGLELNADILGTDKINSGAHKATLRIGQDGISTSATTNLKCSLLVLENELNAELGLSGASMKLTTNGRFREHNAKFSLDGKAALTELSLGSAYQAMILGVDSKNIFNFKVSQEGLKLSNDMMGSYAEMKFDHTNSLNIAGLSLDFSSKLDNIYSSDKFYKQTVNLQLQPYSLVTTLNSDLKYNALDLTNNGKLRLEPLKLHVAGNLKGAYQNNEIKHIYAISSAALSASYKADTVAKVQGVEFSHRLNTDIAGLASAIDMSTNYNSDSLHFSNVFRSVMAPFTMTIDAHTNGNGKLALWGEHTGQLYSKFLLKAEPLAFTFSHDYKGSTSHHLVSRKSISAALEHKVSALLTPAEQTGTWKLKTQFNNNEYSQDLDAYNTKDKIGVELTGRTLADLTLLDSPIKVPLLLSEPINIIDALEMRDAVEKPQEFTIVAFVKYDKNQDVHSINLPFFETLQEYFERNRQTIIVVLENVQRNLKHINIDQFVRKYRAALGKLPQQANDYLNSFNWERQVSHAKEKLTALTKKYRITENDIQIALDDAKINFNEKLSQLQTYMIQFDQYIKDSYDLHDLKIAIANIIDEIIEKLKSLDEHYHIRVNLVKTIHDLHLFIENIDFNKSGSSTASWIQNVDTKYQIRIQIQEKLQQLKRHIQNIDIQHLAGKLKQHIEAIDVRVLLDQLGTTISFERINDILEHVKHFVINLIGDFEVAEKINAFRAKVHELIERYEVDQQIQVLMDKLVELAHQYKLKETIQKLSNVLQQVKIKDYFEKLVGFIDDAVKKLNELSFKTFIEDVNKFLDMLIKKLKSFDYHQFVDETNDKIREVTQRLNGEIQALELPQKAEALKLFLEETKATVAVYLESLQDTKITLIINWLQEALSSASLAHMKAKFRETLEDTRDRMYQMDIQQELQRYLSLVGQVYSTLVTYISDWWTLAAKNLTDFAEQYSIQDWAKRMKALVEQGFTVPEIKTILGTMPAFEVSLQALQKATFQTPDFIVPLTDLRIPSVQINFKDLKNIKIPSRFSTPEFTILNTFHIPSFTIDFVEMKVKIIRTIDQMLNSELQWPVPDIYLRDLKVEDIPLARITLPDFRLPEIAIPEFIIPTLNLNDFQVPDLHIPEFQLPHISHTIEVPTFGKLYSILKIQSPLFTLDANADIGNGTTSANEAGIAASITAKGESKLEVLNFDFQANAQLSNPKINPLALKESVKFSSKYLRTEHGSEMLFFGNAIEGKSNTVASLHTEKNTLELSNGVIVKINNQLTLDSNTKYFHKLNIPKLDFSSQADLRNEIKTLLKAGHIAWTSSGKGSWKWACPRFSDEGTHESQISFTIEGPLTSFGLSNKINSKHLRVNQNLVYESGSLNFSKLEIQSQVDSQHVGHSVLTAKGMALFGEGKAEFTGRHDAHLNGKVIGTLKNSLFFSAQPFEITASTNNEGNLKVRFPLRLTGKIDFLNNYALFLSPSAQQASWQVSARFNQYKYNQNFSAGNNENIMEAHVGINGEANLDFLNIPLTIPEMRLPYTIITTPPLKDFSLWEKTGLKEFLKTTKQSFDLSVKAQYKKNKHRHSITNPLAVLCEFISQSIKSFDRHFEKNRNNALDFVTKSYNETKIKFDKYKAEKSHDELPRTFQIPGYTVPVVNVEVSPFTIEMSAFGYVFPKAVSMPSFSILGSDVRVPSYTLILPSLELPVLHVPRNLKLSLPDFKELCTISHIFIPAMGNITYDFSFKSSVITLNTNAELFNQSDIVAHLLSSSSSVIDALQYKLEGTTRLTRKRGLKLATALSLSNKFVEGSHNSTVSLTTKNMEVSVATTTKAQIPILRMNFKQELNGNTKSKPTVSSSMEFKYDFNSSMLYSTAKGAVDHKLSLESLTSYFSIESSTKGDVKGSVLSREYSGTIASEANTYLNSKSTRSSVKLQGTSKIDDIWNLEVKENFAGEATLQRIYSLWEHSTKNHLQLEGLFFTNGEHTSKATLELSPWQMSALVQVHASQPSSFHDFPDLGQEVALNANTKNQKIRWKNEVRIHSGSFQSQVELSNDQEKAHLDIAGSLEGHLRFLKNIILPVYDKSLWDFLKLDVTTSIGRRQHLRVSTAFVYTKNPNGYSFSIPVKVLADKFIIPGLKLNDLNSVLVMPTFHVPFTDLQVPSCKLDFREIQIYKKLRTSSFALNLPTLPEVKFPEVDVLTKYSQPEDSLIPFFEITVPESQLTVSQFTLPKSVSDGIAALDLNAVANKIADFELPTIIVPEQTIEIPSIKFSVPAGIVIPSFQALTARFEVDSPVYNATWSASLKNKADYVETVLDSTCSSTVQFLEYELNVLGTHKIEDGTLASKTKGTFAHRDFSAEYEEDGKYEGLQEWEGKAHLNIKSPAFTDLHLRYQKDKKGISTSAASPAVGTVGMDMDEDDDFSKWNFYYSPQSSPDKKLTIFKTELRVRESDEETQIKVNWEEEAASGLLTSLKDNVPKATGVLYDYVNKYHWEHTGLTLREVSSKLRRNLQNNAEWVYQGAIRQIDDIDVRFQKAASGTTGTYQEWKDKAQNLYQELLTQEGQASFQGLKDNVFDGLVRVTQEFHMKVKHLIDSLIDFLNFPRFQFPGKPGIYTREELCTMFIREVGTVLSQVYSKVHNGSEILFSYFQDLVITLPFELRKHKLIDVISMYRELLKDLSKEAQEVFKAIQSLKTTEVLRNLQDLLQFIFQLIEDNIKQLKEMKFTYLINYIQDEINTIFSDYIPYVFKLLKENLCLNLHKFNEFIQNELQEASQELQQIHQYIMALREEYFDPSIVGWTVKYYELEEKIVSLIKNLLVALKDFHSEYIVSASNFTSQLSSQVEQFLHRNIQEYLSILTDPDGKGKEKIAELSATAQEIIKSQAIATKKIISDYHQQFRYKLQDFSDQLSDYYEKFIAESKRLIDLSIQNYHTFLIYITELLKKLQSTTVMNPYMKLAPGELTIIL
UniProt P40222: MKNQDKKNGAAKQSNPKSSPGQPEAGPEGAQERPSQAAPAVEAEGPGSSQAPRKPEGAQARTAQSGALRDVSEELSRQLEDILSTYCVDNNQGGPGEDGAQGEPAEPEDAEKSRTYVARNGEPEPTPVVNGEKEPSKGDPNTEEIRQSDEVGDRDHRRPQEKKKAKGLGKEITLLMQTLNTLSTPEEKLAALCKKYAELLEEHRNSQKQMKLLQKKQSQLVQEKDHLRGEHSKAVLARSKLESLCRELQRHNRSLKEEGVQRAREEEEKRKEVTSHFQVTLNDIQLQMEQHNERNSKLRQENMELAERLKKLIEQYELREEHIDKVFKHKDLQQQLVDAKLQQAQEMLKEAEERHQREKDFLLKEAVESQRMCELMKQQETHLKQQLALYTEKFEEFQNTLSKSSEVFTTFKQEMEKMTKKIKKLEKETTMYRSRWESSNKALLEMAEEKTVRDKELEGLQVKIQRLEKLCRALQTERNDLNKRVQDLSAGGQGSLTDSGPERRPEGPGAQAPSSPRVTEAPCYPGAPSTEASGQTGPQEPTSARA

What was measured:
[1] = molecular target: native human low density lipoprotein (LDL) (human) (UniProt P04114); assay: plaque-lift expression screen of a rabbit aorta cDNA phage library; membranes incubated with native human LDL (4 ug/ml), detected with sheep anti-human LDL antibodies; phage-expressed protein
[2] = molecular target: native human low density lipoprotein (LDL) (human) (UniProt P04114); assay: ACE self-competition: fixed cold LDL and radiolabeled LBP-1, increasing cold recombinant LBP-1 (6-31 uM)
[3] = molecular target: native human low density lipoprotein (LDL) (human) (UniProt P04114); assay: affinity coelectrophoresis (ACE): 125I-LBP-1 run through LDL cast in agarose
[4] = molecular target: native human low density lipoprotein (LDL) (human) (UniProt P04114); assay: ACE self-competition: fixed cold LDL and radiolabeled LBP-3, increasing cold LBP-3
[5] = molecular target: native human low density lipoprotein (LDL) (human) (UniProt P04114); assay: affinity coelectrophoresis (ACE): 125I-LBP-3 run through LDL cast in agarose

| binding [1] | binding [2] | binding [3] | binding [4] | binding [5] | Substance |
| --- | --- | --- | --- | --- | --- |
| binds | binds | binds | – | – | recombinant rabbit LBP-1 (6-His tag) (from UniProt Q9CPW4 1-151) |
| binds | – | – | binds | binds | recombinant rabbit LBP-3 (6-His tag) (from UniProt P40222 1-546) |
